PubChem BioAssay AID1259308, NCATS, 2017
Test: 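Genes whose loss raises luciferase production in HEK293 cells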 (primary screen). System: human HEK293 embryonic kidney cells stably expressing firefly luciferase (HEK-CMV-Luc2-Hygro). Reagents: single siRNA against human genes, 0.8 pmol siRNA per well. Time to read-out: 72 h. Measurement: 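Luciferase light (ONE-Glo) measured on one replicate plate set and viability (CellTiter-Glo) on the other, scaled to a negative control siRNA, with robust z-scores and luciferase per cell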. Reading the numbers: total luciferase, z-score and total luciferase, % of control: higher = more reporter protein produced. Call rule: 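An siRNA counts as active if its total luciferase robust z-score exceeds 3; genes with two or more such siRNAs out of three were retested with fresh siRNAs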. Meaning of the calls: active = raised luciferase; inactive = no rise.
In all, the deposit lists about 59,000 reagents; this is a random part of them. About 1,510 of them (2.6%) were called active. 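Calls use total luciferase alone and ignore viability, so some active siRNAs may act by altering cell number.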 Entries without a mark were called inactive. Reagents against one gene are numbered here. Further read-outs or replicates are left out here.

Target gene	reagent no.	total luciferase, z-score	total luciferase, % of control
LOC441347 (retired record)	1	1.89	119
LOC441347 (retired record)	2	0.632	94.5
LOC441347 (retired record)	3	0.918	100
CIITA (class II major histocompatibility complex transactivator)	1	-0.153	78.9
CIITA (class II major histocompatibility complex transactivator)	2	-0.842	65.1
CIITA (class II major histocompatibility complex transactivator)	3	-0.0734	80.4
RPL12P2 (ribosomal protein L12 pseudogene 2)	1	-0.869	64.6
RPL12P2 (ribosomal protein L12 pseudogene 2)	2	0.364	89.1
RPL12P2 (ribosomal protein L12 pseudogene 2)	3	-0.521	71.5
BCORL1 (BCL6 corepressor like 1)	1	0.679	95.4
BCORL1 (BCL6 corepressor like 1)	2	-1.22	57.6
BCORL1 (BCL6 corepressor like 1)	3	0.117	84.2
SLC15A5	1	1.91	120
SLC15A5	2	-1.13	59.5
SLC15A5	3	6.05 (active)	202
SCYL3 (SCY1 like pseudokinase 3)	1	0.108	84
SCYL3 (SCY1 like pseudokinase 3)	2	-0.219	77.5
SCYL3 (SCY1 like pseudokinase 3)	3	-1.32	55.7
CRCT1 (cysteine rich C-terminal 1)	1	0.808	98
CRCT1 (cysteine rich C-terminal 1)	2	-0.924	63.5
CRCT1 (cysteine rich C-terminal 1)	3	-1.78	46.5
PALB2 (partner and localizer of BRCA2)	1	0.0933	83.7
PALB2 (partner and localizer of BRCA2)	2	0.132	84.5
PALB2 (partner and localizer of BRCA2)	3	1.86	119
FBXO38 (F-box protein 38)	1	0.768	97.2
FBXO38 (F-box protein 38)	2	1.27	107
FBXO38 (F-box protein 38)	3	-0.674	68.5
SFXN1 (sideroflexin 1)	1	1.81	118
SFXN1 (sideroflexin 1)	2	-0.879	64.4
SFXN1 (sideroflexin 1)	3	0.558	93
ZBTB7A (zinc finger and BTB domain containing 7A)	1	-0.655	68.9
ZBTB7A (zinc finger and BTB domain containing 7A)	2	0.0841	83.6
ZBTB7A (zinc finger and BTB domain containing 7A)	3	0.28	87.5
HACD2 (3-hydroxyacyl-CoA dehydratase 2)	1	-0.887	64.2
HACD2 (3-hydroxyacyl-CoA dehydratase 2)	2	1.53	112
HACD2 (3-hydroxyacyl-CoA dehydratase 2)	3	-0.439	73.2
SMURF1 (SMAD specific E3 ubiquitin protein ligase 1)	1	-0.494	72.1
SMURF1 (SMAD specific E3 ubiquitin protein ligase 1)	2	-2.33	35.5
SMURF1 (SMAD specific E3 ubiquitin protein ligase 1)	3	-0.14	79.1

Just “total luciferase, % of control”, for 6 of the entries above:
SFXN1 (sideroflexin 1) #3	93
ZBTB7A (zinc finger and BTB domain containing 7A) #1	68.9
ZBTB7A (zinc finger and BTB domain containing 7A) #2	83.6
ZBTB7A (zinc finger and BTB domain containing 7A) #3	87.5
HACD2 (3-hydroxyacyl-CoA dehydratase 2) #1	64.2
HACD2 (3-hydroxyacyl-CoA dehydratase 2) #2	112
